Data taken from the supplement of paper PMC11546906.
Where a name gives a salt, the structure may show the parent alone. The list shows a part of the results. Single values are uncertain here, since repeats match poorly.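 Screen of FDA-approved drugs, each combined with colistin at one-eighth of its MIC, against a multidrug-resistant mcr-1-positive clinical E. coli isolate; growth read as OD600 after 24 h. Bacteria without drug were the growth control and plain broth the blank. A combination counted as active when OD600 fell below 0.2.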

Tested on: Escherichia coli 42 (mcr-1-positive clinical isolate)
Assay: OD600 after 24 h growth with compound plus colistin (absorbance units (OD600)); higher = more bacterial growth (less inhibition)
Details: first compound 25 µM; colistin concentration 0.5 ug/mL; incubation time 24 h; 37 °C

| Compound | OD600 |
| --- | --- |
| CC(C)Nc1nc2cc(Cl)c(Cl)cc2n1[C@H]1O[C@@H](CO)[C@H](O)[C@@H]1O [Maribavir] + CCC(C)CCCC(=O)N[C@@H](CCN)C(=O)N[C@H](C(=O)N[C@@H](CCN)C(=O)N[C@H]1CCNC(=O)[C@H]([C@@H](C)O)NC(=O)[C@H](CCN)NC(=O)[C@H](CCN)NC(=O)[C@H](CC(C)C)NC(=O)[C@@H](CC(C)C)NC(=O)[C@H](CCN)NC1=O)[C@@H](C)O [colistin] | inactive: 1.03 |
| CN1CCN2c3ncccc3Cc3ccccc3C2C1 (stereo not given) [Mirtazapine] + CCC(C)CCCC(=O)N[C@@H](CCN)C(=O)N[C@H](C(=O)N[C@@H](CCN)C(=O)N[C@H]1CCNC(=O)[C@H]([C@@H](C)O)NC(=O)[C@H](CCN)NC(=O)[C@H](CCN)NC(=O)[C@H](CC(C)C)NC(=O)[C@@H](CC(C)C)NC(=O)[C@H](CCN)NC1=O)[C@@H](C)O [colistin] | inactive: 1.09 |
| CC(COc1ccccc1)N(CCCl)Cc1ccccc1 (stereo not given) [Phenoxybenzamine hydrochloride] + CCC(C)CCCC(=O)N[C@@H](CCN)C(=O)N[C@H](C(=O)N[C@@H](CCN)C(=O)N[C@H]1CCNC(=O)[C@H]([C@@H](C)O)NC(=O)[C@H](CCN)NC(=O)[C@H](CCN)NC(=O)[C@H](CC(C)C)NC(=O)[C@@H](CC(C)C)NC(=O)[C@H](CCN)NC1=O)[C@@H](C)O [colistin] | inactive: 0.977 |
| CCCC(CCC)C(=O)O [Valproic acid sodium salt] + CCC(C)CCCC(=O)N[C@@H](CCN)C(=O)N[C@H](C(=O)N[C@@H](CCN)C(=O)N[C@H]1CCNC(=O)[C@H]([C@@H](C)O)NC(=O)[C@H](CCN)NC(=O)[C@H](CCN)NC(=O)[C@H](CC(C)C)NC(=O)[C@@H](CC(C)C)NC(=O)[C@H](CCN)NC1=O)[C@@H](C)O [colistin] | inactive: 0.959 |
| CNC(=O)c1ccc(N2C(=S)N(c3cnc(C#N)c(C(F)(F)F)c3)C(=O)C23CCC3)cc1F [Apalutamide] + CCC(C)CCCC(=O)N[C@@H](CCN)C(=O)N[C@H](C(=O)N[C@@H](CCN)C(=O)N[C@H]1CCNC(=O)[C@H]([C@@H](C)O)NC(=O)[C@H](CCN)NC(=O)[C@H](CCN)NC(=O)[C@H](CC(C)C)NC(=O)[C@@H](CC(C)C)NC(=O)[C@H](CCN)NC1=O)[C@@H](C)O [colistin] | inactive: 0.841 |
| CNCC(O)c1ccc(O)c(O)c1 (racemic) [DL-Adrenaline Hydrochloride] + CCC(C)CCCC(=O)N[C@@H](CCN)C(=O)N[C@H](C(=O)N[C@@H](CCN)C(=O)N[C@H]1CCNC(=O)[C@H]([C@@H](C)O)NC(=O)[C@H](CCN)NC(=O)[C@H](CCN)NC(=O)[C@H](CC(C)C)NC(=O)[C@@H](CC(C)C)NC(=O)[C@H](CCN)NC1=O)[C@@H](C)O [colistin] | inactive: 1.29 |
| C[C@@H](c1ncncc1F)[C@](O)(Cn1cncn1)c1ccc(F)cc1F [Voriconazole] + CCC(C)CCCC(=O)N[C@@H](CCN)C(=O)N[C@H](C(=O)N[C@@H](CCN)C(=O)N[C@H]1CCNC(=O)[C@H]([C@@H](C)O)NC(=O)[C@H](CCN)NC(=O)[C@H](CCN)NC(=O)[C@H](CC(C)C)NC(=O)[C@@H](CC(C)C)NC(=O)[C@H](CCN)NC1=O)[C@@H](C)O [colistin] | inactive: 1.04 |
| CC(S)C(=O)NCC(=O)O (stereo not given) [Tiopronin] + CCC(C)CCCC(=O)N[C@@H](CCN)C(=O)N[C@H](C(=O)N[C@@H](CCN)C(=O)N[C@H]1CCNC(=O)[C@H]([C@@H](C)O)NC(=O)[C@H](CCN)NC(=O)[C@H](CCN)NC(=O)[C@H](CC(C)C)NC(=O)[C@@H](CC(C)C)NC(=O)[C@H](CCN)NC1=O)[C@@H](C)O [colistin] | inactive: 1.02 |
| O=C1N=C(O)NC1(c1ccccc1)c1ccccc1 [Phenytoin sodium] + CCC(C)CCCC(=O)N[C@@H](CCN)C(=O)N[C@H](C(=O)N[C@@H](CCN)C(=O)N[C@H]1CCNC(=O)[C@H]([C@@H](C)O)NC(=O)[C@H](CCN)NC(=O)[C@H](CCN)NC(=O)[C@H](CC(C)C)NC(=O)[C@@H](CC(C)C)NC(=O)[C@H](CCN)NC1=O)[C@@H](C)O [colistin] | inactive: 1.02 |
| Cc1ccc(C(=O)c2ccc(CC(=O)O)n2C)cc1 [Tolmetin] + CCC(C)CCCC(=O)N[C@@H](CCN)C(=O)N[C@H](C(=O)N[C@@H](CCN)C(=O)N[C@H]1CCNC(=O)[C@H]([C@@H](C)O)NC(=O)[C@H](CCN)NC(=O)[C@H](CCN)NC(=O)[C@H](CC(C)C)NC(=O)[C@@H](CC(C)C)NC(=O)[C@H](CCN)NC1=O)[C@@H](C)O [colistin] | inactive: 1.12 |
| Cc1nnc(NS(=O)(=O)c2ccc(N)cc2)s1 [Sulfamethizole] + CCC(C)CCCC(=O)N[C@@H](CCN)C(=O)N[C@H](C(=O)N[C@@H](CCN)C(=O)N[C@H]1CCNC(=O)[C@H]([C@@H](C)O)NC(=O)[C@H](CCN)NC(=O)[C@H](CCN)NC(=O)[C@H](CC(C)C)NC(=O)[C@@H](CC(C)C)NC(=O)[C@H](CCN)NC1=O)[C@@H](C)O [colistin] | inactive: 0.986 |
| Nc1nc(=O)[nH]cc1F [Flucytosine] + CCC(C)CCCC(=O)N[C@@H](CCN)C(=O)N[C@H](C(=O)N[C@@H](CCN)C(=O)N[C@H]1CCNC(=O)[C@H]([C@@H](C)O)NC(=O)[C@H](CCN)NC(=O)[C@H](CCN)NC(=O)[C@H](CC(C)C)NC(=O)[C@@H](CC(C)C)NC(=O)[C@H](CCN)NC1=O)[C@@H](C)O [colistin] | inactive: 0.827 |
| COc1cc(NC(C)CCCN)c2ncccc2c1 (stereo not given) [Primaquine diphosphate] + CCC(C)CCCC(=O)N[C@@H](CCN)C(=O)N[C@H](C(=O)N[C@@H](CCN)C(=O)N[C@H]1CCNC(=O)[C@H]([C@@H](C)O)NC(=O)[C@H](CCN)NC(=O)[C@H](CCN)NC(=O)[C@H](CC(C)C)NC(=O)[C@@H](CC(C)C)NC(=O)[C@H](CCN)NC1=O)[C@@H](C)O [colistin] | inactive: 1.06 |
| O=C(O)CCCC[C@@H]1SC[C@@H]2NC(=O)N[C@@H]21 [Biotin] + CCC(C)CCCC(=O)N[C@@H](CCN)C(=O)N[C@H](C(=O)N[C@@H](CCN)C(=O)N[C@H]1CCNC(=O)[C@H]([C@@H](C)O)NC(=O)[C@H](CCN)NC(=O)[C@H](CCN)NC(=O)[C@H](CC(C)C)NC(=O)[C@@H](CC(C)C)NC(=O)[C@H](CCN)NC1=O)[C@@H](C)O [colistin] | inactive: 0.585 |
| CCCCNc1ccc(C(=O)OCCN(C)C)cc1 [Tetracaine hydrochloride] + CCC(C)CCCC(=O)N[C@@H](CCN)C(=O)N[C@H](C(=O)N[C@@H](CCN)C(=O)N[C@H]1CCNC(=O)[C@H]([C@@H](C)O)NC(=O)[C@H](CCN)NC(=O)[C@H](CCN)NC(=O)[C@H](CC(C)C)NC(=O)[C@@H](CC(C)C)NC(=O)[C@H](CCN)NC1=O)[C@@H](C)O [colistin] | inactive: 1.12 |
| C#CCN[C@@H]1CCc2ccccc21 [Rasagiline] + CCC(C)CCCC(=O)N[C@@H](CCN)C(=O)N[C@H](C(=O)N[C@@H](CCN)C(=O)N[C@H]1CCNC(=O)[C@H]([C@@H](C)O)NC(=O)[C@H](CCN)NC(=O)[C@H](CCN)NC(=O)[C@H](CC(C)C)NC(=O)[C@@H](CC(C)C)NC(=O)[C@H](CCN)NC1=O)[C@@H](C)O [colistin] | inactive: 1.16 |
| C=C[C@]1(C)C[C@@H](OC(=O)CS[C@@H]2CC[C@@H](N)C[C@H]2O)[C@]2(C)[C@H](C)CC[C@]3(CCC(=O)[C@H]32)[C@@H](C)[C@@H]1O [Lefamulin acetate] + CCC(C)CCCC(=O)N[C@@H](CCN)C(=O)N[C@H](C(=O)N[C@@H](CCN)C(=O)N[C@H]1CCNC(=O)[C@H]([C@@H](C)O)NC(=O)[C@H](CCN)NC(=O)[C@H](CCN)NC(=O)[C@H](CC(C)C)NC(=O)[C@@H](CC(C)C)NC(=O)[C@H](CCN)NC1=O)[C@@H](C)O [colistin] | active: 0.043 |
| COc1cccc2c1C(=O)c1c(O)c3c(c(O)c1C2=O)C[C@@](O)(C(C)=O)C[C@@H]3O[C@H]1C[C@H](N)[C@H](O)[C@H](C)O1 [Daunorubicin hydrochloride] + CCC(C)CCCC(=O)N[C@@H](CCN)C(=O)N[C@H](C(=O)N[C@@H](CCN)C(=O)N[C@H]1CCNC(=O)[C@H]([C@@H](C)O)NC(=O)[C@H](CCN)NC(=O)[C@H](CCN)NC(=O)[C@H](CC(C)C)NC(=O)[C@@H](CC(C)C)NC(=O)[C@H](CCN)NC1=O)[C@@H](C)O [colistin] | active: 0.045 |
| Cn1c(=O)c2nc[nH]c2n(C)c1=O [Theophylline] + CCC(C)CCCC(=O)N[C@@H](CCN)C(=O)N[C@H](C(=O)N[C@@H](CCN)C(=O)N[C@H]1CCNC(=O)[C@H]([C@@H](C)O)NC(=O)[C@H](CCN)NC(=O)[C@H](CCN)NC(=O)[C@H](CC(C)C)NC(=O)[C@@H](CC(C)C)NC(=O)[C@H](CCN)NC1=O)[C@@H](C)O [colistin] | inactive: 1.11 |
| CCS(=O)(=O)N1CC(CC#N)(n2cc(-c3ncnc4[nH]ccc34)cn2)C1 [Baricitinib phosphate] + CCC(C)CCCC(=O)N[C@@H](CCN)C(=O)N[C@H](C(=O)N[C@@H](CCN)C(=O)N[C@H]1CCNC(=O)[C@H]([C@@H](C)O)NC(=O)[C@H](CCN)NC(=O)[C@H](CCN)NC(=O)[C@H](CC(C)C)NC(=O)[C@@H](CC(C)C)NC(=O)[C@H](CCN)NC1=O)[C@@H](C)O [colistin] | inactive: 1.05 |

Random excerpt: two entries already listed, in no set order.

| Compound | OD600 |
| --- | --- |
| Cc1nnc(NS(=O)(=O)c2ccc(N)cc2)s1 [Sulfamethizole] + CCC(C)CCCC(=O)N[C@@H](CCN)C(=O)N[C@H](C(=O)N[C@@H](CCN)C(=O)N[C@H]1CCNC(=O)[C@H]([C@@H](C)O)NC(=O)[C@H](CCN)NC(=O)[C@H](CCN)NC(=O)[C@H](CC(C)C)NC(=O)[C@@H](CC(C)C)NC(=O)[C@H](CCN)NC1=O)[C@@H](C)O [colistin] | inactive: 0.986 |
| CCCC(CCC)C(=O)O [Valproic acid sodium salt] + CCC(C)CCCC(=O)N[C@@H](CCN)C(=O)N[C@H](C(=O)N[C@@H](CCN)C(=O)N[C@H]1CCNC(=O)[C@H]([C@@H](C)O)NC(=O)[C@H](CCN)NC(=O)[C@H](CCN)NC(=O)[C@H](CC(C)C)NC(=O)[C@@H](CC(C)C)NC(=O)[C@H](CCN)NC1=O)[C@@H](C)O [colistin] | inactive: 0.959 |
